According to US7871797B2, “DNA encoding a bacterial protease for degrading gelatin and collagen” (Jellice Co., Ltd., priority 2003, dated 2011):
For at least one compound, name, drawing or mass did not settle the structure. Starred links: 1 amine or outer side, 2 acyl side, 3 side chain; linkers in the order of their positions; H or OH if unused. Residues, ends and D or L forms follow the SMILES beside them. CO = O=C([*:1])[*:2]

System: enzyme (protease) of the present invention
Type: biochemical, Aureobacterium sp. MIM-CG-9535-I
Details: inhibitor 0.05 mM; 30 min at 37° C.; no inhibitor = 100 percent
Description: Reagents in the form of o-phenanthroline, EDTA, EGTA, L-cysteine, 2-mercaptoethanol, N-ethylmaleimide, antipain, leupepsin, E-64, phosphoramidon, trypsin inhibitor, chymostatin, TCPK, PMSF, and iodoacetamide were employed as inhibitors.
Each of the reagents was mixed with the synthetic substrate after which the enzyme was added. The degradation reaction was conducted for 30 min at 37° C. and the enzymatic activity was measured. Adopting the case where no inhibitor was added as 100 percent, the relative residual enzymatic activity was calculated.

CC(C)[C@H](NC(=O)[C@H](CCCNC(=N)N)NC(=O)N[C@@H](Cc1ccccc1)C(=O)O)C(=O)N[C@H](C=O)CCCNC(=N)N [Antipain, antipain] ({Phe-CO}-Arg-Val-Arg-aldehyde)
Residual activity (%): 94%
